Measurements taken from publication PMC3084824.
These are yes or no findings as the source states them, for the method shown. Binding seen in cells or lysates may run through a third protein. Some entries that bind do so weakly or less than the wild type. For some assays here: Sequences can lack the tags named with a protein.

Chains of the proteins cited; added tags and fusions are not shown. Residues count along the entry.
UniProt Q15109, residues 23-404: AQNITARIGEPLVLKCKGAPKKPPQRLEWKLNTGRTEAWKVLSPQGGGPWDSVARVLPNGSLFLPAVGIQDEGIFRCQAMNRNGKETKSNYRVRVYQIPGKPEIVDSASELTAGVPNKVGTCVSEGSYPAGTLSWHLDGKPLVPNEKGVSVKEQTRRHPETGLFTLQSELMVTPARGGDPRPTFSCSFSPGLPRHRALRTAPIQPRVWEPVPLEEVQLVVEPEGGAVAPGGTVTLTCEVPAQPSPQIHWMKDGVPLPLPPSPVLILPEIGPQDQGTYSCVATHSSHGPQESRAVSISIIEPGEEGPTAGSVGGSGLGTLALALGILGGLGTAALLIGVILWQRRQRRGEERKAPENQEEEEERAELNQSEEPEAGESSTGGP

Legend:
[1] = molecular target: T1, S100A14 (endogenous, KYSE180 cells) (human (endogenous in KYSE180)) (UniProt Q9HCY8); test: co-IP; KYSE180 cell lysates immunoprecipitated with anti-S100A14 polyclonal antibodies at 4°C overnight; RAGE detected by Western blotting
T1 sequence: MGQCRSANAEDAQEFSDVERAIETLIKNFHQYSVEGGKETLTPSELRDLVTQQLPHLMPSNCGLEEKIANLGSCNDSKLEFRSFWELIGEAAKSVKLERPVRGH

[2] = molecular target: T2, human recombinant S100A14 protein (histidine-tagged fusion protein) (human) (UniProt Q9HCY8); test: pull-down; purified His-tagged S100A14 (10 µg) on His-resin beads, 4°C 1 h, then KYSE180 cell lysates overnight at 4°C; eluted with 2×SDS sample buffer; blot with a RAGE polyclonal antibody; only the target purified
T2 sequence: T1 sequence

binding [1]: binds | binding [2]: binds
Substance: receptor for advanced glycation end products (RAGE) (from UniProt Q15109 23-404)
